This assay deals with T1, p140Cap adaptor protein (UniProt Q9QWI6).
T1 sequence: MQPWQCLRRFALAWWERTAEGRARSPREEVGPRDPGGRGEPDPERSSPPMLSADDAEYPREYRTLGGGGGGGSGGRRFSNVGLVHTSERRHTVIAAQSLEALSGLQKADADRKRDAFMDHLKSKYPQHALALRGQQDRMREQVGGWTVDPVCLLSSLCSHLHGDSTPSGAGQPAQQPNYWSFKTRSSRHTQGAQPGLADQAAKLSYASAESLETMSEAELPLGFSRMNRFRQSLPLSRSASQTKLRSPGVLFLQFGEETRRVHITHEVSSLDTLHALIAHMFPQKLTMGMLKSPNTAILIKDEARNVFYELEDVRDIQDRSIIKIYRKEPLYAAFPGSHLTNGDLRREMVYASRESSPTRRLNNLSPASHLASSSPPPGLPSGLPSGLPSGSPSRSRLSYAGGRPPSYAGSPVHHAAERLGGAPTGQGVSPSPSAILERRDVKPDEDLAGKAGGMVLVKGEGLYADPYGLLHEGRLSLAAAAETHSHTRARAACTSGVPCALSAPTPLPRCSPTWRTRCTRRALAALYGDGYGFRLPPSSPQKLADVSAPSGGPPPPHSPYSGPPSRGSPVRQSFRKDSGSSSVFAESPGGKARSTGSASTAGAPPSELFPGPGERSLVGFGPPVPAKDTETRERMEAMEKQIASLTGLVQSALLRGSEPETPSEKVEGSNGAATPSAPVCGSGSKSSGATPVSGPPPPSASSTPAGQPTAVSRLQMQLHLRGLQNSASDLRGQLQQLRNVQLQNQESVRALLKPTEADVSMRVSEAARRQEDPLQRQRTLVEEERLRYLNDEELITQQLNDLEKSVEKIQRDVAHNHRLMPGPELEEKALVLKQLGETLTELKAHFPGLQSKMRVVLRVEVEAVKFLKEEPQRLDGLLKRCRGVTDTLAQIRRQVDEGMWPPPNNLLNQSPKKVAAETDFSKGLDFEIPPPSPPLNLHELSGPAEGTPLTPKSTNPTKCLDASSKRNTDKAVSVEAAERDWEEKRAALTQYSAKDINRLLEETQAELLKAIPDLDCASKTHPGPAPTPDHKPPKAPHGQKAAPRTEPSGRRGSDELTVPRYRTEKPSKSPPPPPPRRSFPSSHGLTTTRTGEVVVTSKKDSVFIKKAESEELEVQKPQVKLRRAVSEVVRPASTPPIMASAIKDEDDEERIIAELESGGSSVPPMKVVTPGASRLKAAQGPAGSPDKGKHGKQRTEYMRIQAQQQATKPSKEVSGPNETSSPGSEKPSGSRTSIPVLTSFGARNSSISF
The experiment in a line: affinity purification with mass spectrometry; p140Cap Mab cross-linked to protein G Dynabeads, 9 mg cell extract of p140-TUBO against NeuT-TUBO (mock) cells, lysis buffer 150 mM NaCl, 50 mM Tris pH 7.4, 1% NP-40, 1 mM MgCl2, 5% glycerol, 2 h at 4°C; label-free nanoLC-MS/MS, three experiments.

Results are given in words; binding and its absence hold for the method and conditions named. Binding seen in cells or lysates may run through a third protein. These calls come from enrichment with a bait or labelling near it, and not all partners need be listed.

B1: Catenin delta-1 (protein, UniProt P30999 1-938)
chain: MDDSEVESTASILASVKEQEAQFEKLTRALEEERRHVSAQLERVRVSPQDANSLMANGTLTRRHQNGRFVGDADLERQKFSDLKLNGPQDHNHLLYSTIPRMQEPGQIVETYTEEDPEGAMSVVSVETTDDGTTRRTETTVKKVVKTMTTRTVQPVPMGPDGLPVDASAVSNNYIQTLGRDFRKNGNGGPGPYVGQAGTATLPRNFHYPPDGYGRHYEDGYPGGSDNYGSLSRVTRIEERYRPSMEGYRAPSRQDVYGPQPQVRVGGSSVDLHRFHPEPYGLEDDQRSMGYDDLDYGMMSDYGTARRTGTPSDPRRRLRSYEDMIGEEVPPDQYYWAPLAQHERGSLASLDSLRKGMPPPSNWRQPELPEVIAMLGFRLDAVKSNAAAYLQHLCYRNDKVKTDVRKLKGIPILVGLLDHPKKEVHLGACGALKNISFGRDQDNKIAIKNCDGVPALVRLLRKARDMDLTEVITGTLWNLSSHDSIKMEIVDHALHALTDEVIIPHSGWEREPNEDCKPRHIEWESVLTNTAGCLRNVSSERSEARRKLRECDGLVDALIFIVQAEIGQKDSDSKLVENCVCLLRNLSYQVHREIPQAERYQEALPTVANSTGPHAASCFGAKKGKDEWFSRGKKPTEDPANDTVDFPKRTSPARGYELLFQPEVVRIYISLLKESKTPAILEASAGAIQNLCAGRWTYGRYIRSALRQEKALSAIAELLTSEHERVVKAASGALRNLAVDARNKELIGKHAIPNLVKNLPGGQQNSSWNFSEDTVVSILNTINEVIAENLEAAKKLRETQGIEKLVLINKSGNRSEKEVRAAALVLQTIWGYKELRKPLEKEGWKKSDFQVNLNNASRSQSSHSYDDSTLPLIDRNQKSDKKPDREEIPMSNMGSNTKSLDNNYSTLNERGDHNRTLDRSGDLGDMEPLKGAPLMQKI
Turning to B1, the binding result is recorded as “binds”.

The values above are taken from PMC6803390.
